The target of this assay is FLAG-tagged human signal regulatory protein α (SIRPA) (human) (UniProt P78324). The assay is described as follows: co-IP.

By UniProt entry, the sequences of proteins in these tests, tags left out. Where a name states a change or a piece, a line headed by the entry shows the natural chain unless it says otherwise. Residues count along the entry.
UniProt P78324, residues 31-504: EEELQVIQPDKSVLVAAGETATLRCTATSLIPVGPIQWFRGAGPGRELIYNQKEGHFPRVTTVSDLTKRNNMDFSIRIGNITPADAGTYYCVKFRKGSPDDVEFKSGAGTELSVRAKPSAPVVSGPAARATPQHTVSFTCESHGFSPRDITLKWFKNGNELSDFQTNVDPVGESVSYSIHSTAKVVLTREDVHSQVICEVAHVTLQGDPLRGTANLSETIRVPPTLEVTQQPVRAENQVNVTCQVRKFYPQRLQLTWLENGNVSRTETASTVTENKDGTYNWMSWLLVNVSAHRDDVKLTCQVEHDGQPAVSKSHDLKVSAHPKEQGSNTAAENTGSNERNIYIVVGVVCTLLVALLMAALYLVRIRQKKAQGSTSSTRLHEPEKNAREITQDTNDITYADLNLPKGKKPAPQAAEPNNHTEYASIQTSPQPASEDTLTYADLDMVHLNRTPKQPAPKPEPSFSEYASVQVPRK
UniProt Q9ESN6: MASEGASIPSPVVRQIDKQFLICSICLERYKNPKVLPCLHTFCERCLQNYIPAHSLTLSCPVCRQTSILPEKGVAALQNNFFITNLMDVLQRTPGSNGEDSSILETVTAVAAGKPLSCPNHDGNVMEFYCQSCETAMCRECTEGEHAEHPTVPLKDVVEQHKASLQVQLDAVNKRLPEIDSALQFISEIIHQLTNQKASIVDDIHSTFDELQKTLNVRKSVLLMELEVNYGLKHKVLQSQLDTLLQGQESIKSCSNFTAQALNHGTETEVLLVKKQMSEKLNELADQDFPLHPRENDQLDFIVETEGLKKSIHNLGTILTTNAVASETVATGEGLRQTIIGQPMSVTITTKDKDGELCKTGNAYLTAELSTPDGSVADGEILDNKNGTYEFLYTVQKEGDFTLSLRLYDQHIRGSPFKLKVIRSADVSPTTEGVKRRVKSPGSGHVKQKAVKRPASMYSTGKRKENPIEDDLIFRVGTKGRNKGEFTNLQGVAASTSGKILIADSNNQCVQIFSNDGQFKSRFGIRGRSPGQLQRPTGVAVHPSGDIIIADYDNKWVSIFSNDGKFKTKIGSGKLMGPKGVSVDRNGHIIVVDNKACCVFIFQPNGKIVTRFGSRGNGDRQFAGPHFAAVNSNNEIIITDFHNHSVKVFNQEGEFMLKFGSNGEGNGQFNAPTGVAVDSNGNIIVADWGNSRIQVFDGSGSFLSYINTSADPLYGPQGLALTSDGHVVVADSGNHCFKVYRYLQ

Results are given in words; binding and its absence hold for the method and conditions named. In cells and extracts the contact can be indirect. Binding can be weak; no strength is given.

On to “TRIM2 NHL construct (NHL domain only), c-myc-tagged (from UniProt Q9ESN6) (domain or fragment)”, for which the binding entry was “binds”.

These data come from paper PMC6380604.
